Source: PubChem BioAssay AID493014 (National Center for Advancing Translational Sciences (NCATS), 2011)
This is one part of the list. The main result of the screen is listed elsewhere. These columns were measured beside it and carry no call. Most of these compounds were active or inconclusive in the main read-out, so they are no random draw. The note in brackets gives the kind of curve behind each potency; many fits are weak.

Experiment: qHTS Assay to Find Inhibitors of Chronic Active B-Cell Receptor Signaling
Settings: ABC-DLBCL IkBa-CBG/CBR reporter, luminescence ratio (green luciferase fused to IkBa over red control in TMD8 lymphoma cells), 4 h
Method in brief: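 Concentration-response series (up to 46 uM) were applied to TMD8 dual-reporter cells for 4 h at 37C with doxycycline. Green/red ratio, after filter-overlap correction, defined %Activity; red signal alone was normalised to basal cells and zero luminescence.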

[1] = measured here: CBR red luminescence, cell number
[2] = measured here: IkBa-CBG green luminescence

| Compound | AC50 [1] | AC50 [2] |
| --- | --- | --- |
| CCc1cc2c(=O)n(Cc3ccco3)c(SCC(=O)NC3CCS(=O)(=O)C3)nc2s1 (stereo not drawn) | 35.5 µM [falling, single point] |  |
| COc1ccc(CC(=O)Nc2ccc(N(C)C)c3ccccc23)cc1 | 10 µM [rising, partial curve, poor fit] |  |
| CC(=O)N(c1ccc(N(C(C)=O)S(=O)(=O)c2cccs2)cc1)S(=O)(=O)c1cccs1 | 1.03 µM [falling, full curve, poor fit] |  |
| O=C(c1ccc(S(=O)(=O)Cc2cc(F)ccc2F)c([N+](=O)[O-])c1)N1CCCC1 | 35.5 µM [falling, single point] |  |
| COc1ccc2nc(NC(=O)c3c(C)noc3C)sc2c1 | 23.1 µM [falling, partial curve] |  |
| Cc1cc(C(=O)O)ccc1N/C=C1\CCCC(C)C1=O (stereo not drawn) | 0.082 µM [falling, full curve, poor fit] |  |
| Cc1ccsc1C(=O)OCC(=O)c1cc(C)n(C)c1C | 3.66 µM [falling, single point] |  |
| O=C(CCS(=O)(=O)c1ccccc1)N(CCCN1CCOCC1)c1nc2ccc(F)cc2s1 | 32.6 µM [falling, partial curve, poor fit] |  |
| COC(=O)c1ccccc1NC(=O)c1cc(C2CC2)on1 | 2.06 µM [falling, full curve, poor fit] |  |
| CC(=O)n1c(Cl)c(NC(=O)CCl)c2ccccc21 | 5.17 µM [falling, partial curve, poor fit] |  |
| Cc1cccc(N2CCN(C(=O)CCC(=O)N3CCOc4ccc(Cl)cc43)CC2C)c1 (stereo not drawn) | 22.4 µM [falling, single point] |  |
| CCOC(=O)c1c(C)nn(-c2ccc(NC(=O)/C=C/C(=O)O)cc2)c1C | 7.08 µM [rising, partial curve, poor fit] |  |
| COc1cc(C(c2sc3nc(C)nn3c2O)N2CCN(c3ccccc3)CC2)cc(OC)c1OC (stereo not drawn) |  | 23.1 µM [falling, partial curve, poor fit] |
| COc1ccc(/C=N/N=C2\CC3CCC2(C)C3(C)C)cc1O (stereo not drawn) | 4.61 µM [falling, full curve] | 3.26 µM [rising, full curve, poor fit] |
| Cn1c(SCc2cccc(C(F)(F)F)c2)nnc1-c1ccco1 | 4.47 µM [rising, partial curve, poor fit] |  |
| O=C(Cc1nc2ccccc2[nH]c1=O)c1ccccc1 | 1 µM [falling, full curve] |  |
| Cc1ccc2nc(N3CCN(c4ccccc4)CC3)c(C=O)c(=O)n2c1 | 20 µM [rising, partial curve, poor fit] |  |

Retrieved by compound from the list above:

| Compound | AC50 [1] | AC50 [2] |
| --- | --- | --- |
| COC(=O)c1ccccc1NC(=O)c1cc(C2CC2)on1 | 2.06 µM [falling, full curve, poor fit] |  |
| O=C(Cc1nc2ccccc2[nH]c1=O)c1ccccc1 | 1 µM [falling, full curve] |  |
